These are yes or no findings as the source states them, for the method shown. Binding seen in cells or lysates may run through a third protein. Here binding means that the protein was enriched with, or labelled near, the bait; the list need not be complete. Tags and fused reporters may be left off the sequences shown.
The substances below were run against T1, FLAG-tagged Treacle (mouse Tcof1, full length) (mouse) (UniProt O08784) (assay: affinity purification with mass spectrometry; anti-FLAG agarose from lysates of Tcof1/293-FRT and 293-FRT cells (50 mM Tris-HCl pH 7.5, 150 mM NaCl, 1% NP-40, 5 mM EDTA), 4 °C overnight, eluted by FLAG peptide, MudPIT).
T1 sequence: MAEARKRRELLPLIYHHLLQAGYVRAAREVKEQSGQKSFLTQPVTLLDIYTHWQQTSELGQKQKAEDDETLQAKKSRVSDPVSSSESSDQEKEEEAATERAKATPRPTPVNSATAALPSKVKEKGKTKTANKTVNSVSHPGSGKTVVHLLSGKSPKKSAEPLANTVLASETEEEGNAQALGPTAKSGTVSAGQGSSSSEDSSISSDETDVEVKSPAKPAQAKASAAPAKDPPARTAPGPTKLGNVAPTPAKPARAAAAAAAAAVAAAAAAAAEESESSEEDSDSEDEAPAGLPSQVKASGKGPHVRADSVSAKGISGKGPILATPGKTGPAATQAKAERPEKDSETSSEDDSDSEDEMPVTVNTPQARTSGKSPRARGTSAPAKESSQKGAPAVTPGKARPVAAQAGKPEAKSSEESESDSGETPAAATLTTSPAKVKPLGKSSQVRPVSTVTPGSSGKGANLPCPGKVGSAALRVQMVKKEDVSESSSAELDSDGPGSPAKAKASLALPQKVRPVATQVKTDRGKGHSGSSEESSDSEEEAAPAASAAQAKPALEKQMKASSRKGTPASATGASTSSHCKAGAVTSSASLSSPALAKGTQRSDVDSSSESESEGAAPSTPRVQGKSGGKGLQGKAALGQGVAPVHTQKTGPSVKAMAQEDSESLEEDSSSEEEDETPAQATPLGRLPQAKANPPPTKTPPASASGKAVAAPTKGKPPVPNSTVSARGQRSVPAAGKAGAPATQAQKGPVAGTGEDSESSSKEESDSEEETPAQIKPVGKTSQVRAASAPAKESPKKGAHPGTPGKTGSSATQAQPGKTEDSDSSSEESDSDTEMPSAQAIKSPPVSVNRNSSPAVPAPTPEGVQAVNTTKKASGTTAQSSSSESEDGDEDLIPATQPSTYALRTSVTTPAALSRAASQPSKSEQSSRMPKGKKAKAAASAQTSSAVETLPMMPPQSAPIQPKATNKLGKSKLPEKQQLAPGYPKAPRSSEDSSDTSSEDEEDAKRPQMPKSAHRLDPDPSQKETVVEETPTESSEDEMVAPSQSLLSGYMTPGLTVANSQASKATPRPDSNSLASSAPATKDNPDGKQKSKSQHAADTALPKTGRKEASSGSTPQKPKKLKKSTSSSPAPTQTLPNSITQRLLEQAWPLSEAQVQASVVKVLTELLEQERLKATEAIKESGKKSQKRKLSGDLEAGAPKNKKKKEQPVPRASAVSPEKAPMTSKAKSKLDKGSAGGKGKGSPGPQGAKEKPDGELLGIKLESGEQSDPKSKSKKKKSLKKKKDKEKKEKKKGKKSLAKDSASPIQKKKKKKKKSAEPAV

The chains behind the UniProt entries cited, without tags or fusion partners.
UniProt Q14676: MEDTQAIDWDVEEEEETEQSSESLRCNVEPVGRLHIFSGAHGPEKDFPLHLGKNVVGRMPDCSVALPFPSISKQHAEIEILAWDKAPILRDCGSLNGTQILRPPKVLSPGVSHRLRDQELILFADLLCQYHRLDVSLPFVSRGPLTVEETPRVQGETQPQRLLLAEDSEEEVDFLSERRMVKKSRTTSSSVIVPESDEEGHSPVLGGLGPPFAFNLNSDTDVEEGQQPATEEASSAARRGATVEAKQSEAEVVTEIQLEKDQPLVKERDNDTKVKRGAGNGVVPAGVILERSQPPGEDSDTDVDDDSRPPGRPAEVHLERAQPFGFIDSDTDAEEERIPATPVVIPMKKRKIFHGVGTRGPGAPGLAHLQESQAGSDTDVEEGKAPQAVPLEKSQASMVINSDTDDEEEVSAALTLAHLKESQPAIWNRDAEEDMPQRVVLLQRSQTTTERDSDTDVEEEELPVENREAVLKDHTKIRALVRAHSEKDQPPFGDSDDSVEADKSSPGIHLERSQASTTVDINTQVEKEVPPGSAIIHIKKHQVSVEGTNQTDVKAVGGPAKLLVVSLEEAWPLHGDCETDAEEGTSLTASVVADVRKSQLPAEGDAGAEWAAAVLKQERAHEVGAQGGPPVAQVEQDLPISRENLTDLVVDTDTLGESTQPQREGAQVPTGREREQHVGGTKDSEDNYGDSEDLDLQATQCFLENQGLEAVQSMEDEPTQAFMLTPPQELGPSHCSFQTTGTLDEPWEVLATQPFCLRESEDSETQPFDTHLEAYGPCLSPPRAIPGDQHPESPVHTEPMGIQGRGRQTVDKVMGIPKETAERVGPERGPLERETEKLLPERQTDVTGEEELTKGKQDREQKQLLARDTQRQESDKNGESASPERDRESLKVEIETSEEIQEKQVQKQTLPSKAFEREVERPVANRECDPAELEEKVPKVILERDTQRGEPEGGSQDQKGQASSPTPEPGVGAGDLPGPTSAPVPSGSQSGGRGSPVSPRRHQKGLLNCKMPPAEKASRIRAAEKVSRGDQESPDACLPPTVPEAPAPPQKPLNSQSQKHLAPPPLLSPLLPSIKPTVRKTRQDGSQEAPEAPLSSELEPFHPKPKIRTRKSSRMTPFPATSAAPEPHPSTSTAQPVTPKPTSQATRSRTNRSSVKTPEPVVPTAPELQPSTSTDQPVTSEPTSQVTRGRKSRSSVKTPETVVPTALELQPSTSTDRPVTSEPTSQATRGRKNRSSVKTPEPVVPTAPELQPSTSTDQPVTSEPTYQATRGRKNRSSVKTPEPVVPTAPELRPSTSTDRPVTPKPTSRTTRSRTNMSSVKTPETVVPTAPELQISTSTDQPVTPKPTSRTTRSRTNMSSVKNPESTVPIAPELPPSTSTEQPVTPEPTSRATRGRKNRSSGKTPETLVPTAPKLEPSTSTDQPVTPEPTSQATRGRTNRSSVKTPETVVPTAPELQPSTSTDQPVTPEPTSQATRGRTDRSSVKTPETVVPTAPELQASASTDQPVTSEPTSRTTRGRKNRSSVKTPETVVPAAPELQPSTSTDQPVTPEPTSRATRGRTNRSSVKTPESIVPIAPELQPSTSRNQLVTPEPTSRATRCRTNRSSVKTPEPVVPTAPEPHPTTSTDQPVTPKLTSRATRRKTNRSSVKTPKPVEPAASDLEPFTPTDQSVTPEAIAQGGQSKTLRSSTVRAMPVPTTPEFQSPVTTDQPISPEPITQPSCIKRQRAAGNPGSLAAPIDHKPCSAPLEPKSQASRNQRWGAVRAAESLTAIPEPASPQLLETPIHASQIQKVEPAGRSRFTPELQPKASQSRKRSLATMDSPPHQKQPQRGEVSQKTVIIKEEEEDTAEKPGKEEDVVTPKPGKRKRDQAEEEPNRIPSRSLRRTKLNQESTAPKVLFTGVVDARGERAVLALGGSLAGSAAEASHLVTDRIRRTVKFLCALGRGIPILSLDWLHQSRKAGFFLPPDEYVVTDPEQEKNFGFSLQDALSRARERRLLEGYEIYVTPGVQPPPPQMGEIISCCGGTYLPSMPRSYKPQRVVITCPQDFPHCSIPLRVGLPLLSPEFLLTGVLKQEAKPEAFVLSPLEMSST
UniProt O60934: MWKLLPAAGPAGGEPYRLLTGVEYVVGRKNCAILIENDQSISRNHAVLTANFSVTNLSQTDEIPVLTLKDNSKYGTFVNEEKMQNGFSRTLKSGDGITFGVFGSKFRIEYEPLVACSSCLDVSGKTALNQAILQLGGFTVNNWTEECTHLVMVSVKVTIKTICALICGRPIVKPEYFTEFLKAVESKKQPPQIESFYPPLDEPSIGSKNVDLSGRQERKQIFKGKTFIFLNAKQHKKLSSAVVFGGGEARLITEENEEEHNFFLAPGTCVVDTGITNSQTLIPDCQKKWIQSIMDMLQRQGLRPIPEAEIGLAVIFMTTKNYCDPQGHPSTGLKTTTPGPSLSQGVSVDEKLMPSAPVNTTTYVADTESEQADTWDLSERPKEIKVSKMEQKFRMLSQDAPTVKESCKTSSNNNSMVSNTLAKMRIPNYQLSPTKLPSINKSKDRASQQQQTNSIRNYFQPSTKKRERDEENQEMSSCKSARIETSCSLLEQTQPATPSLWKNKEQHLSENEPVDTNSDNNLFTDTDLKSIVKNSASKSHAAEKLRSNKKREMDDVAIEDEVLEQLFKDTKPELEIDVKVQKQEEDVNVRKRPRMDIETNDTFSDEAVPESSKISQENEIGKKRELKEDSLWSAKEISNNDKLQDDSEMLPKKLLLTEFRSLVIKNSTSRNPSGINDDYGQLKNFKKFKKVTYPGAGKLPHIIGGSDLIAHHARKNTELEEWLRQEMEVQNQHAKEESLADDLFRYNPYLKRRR
UniProt Q92878: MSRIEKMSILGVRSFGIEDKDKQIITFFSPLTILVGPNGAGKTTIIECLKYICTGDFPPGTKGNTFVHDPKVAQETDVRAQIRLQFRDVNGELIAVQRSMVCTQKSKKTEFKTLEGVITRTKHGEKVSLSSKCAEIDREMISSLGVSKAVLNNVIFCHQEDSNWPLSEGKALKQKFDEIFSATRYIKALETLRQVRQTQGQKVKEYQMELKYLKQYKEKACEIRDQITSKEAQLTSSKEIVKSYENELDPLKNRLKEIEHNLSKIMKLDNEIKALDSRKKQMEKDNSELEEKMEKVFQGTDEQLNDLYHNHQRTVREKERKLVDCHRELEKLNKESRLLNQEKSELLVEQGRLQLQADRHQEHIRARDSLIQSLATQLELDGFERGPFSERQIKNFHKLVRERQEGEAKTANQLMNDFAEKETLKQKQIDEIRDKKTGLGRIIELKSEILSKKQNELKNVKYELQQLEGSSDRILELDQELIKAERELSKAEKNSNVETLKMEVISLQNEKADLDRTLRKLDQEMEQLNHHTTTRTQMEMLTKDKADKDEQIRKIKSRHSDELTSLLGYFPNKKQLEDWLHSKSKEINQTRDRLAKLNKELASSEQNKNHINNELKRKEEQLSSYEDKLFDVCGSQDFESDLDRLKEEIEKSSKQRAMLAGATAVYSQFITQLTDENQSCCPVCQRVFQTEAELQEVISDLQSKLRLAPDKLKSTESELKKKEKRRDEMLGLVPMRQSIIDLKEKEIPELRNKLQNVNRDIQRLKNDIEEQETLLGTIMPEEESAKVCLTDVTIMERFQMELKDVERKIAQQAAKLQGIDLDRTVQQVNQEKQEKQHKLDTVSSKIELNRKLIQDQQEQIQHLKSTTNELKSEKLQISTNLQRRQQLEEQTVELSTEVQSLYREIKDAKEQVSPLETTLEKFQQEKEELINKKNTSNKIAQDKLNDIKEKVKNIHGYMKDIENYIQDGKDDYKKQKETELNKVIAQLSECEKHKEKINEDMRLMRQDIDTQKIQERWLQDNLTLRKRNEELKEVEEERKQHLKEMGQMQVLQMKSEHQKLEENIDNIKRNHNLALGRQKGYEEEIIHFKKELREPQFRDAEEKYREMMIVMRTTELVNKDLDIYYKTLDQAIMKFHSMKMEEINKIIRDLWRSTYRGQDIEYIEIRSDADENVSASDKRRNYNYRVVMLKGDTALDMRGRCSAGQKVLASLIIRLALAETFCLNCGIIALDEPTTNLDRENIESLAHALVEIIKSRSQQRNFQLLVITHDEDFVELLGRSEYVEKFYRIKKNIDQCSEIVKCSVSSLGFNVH

binding, binds:
endogenous MDC1 (from UniProt Q14676 1-2089)
endogenous Nbs1 (from UniProt O60934 1-754)
endogenous Rad50 (from UniProt Q92878 1-1312)

Source: publication PMC4735750
